Assay results as given in paper PMC8989947.
These are yes or no findings as the source states them, for the method shown. In cells and extracts the contact can be indirect. Some binding calls cover weakened binding; strength is not graded here. For part of these data: Tags and fused reporters may be left off the sequences shown.

T1: HA-tagged DCST1 (Dcst1-3xHA transgene) (mouse) (UniProt Q059Y8)
T1 sequence: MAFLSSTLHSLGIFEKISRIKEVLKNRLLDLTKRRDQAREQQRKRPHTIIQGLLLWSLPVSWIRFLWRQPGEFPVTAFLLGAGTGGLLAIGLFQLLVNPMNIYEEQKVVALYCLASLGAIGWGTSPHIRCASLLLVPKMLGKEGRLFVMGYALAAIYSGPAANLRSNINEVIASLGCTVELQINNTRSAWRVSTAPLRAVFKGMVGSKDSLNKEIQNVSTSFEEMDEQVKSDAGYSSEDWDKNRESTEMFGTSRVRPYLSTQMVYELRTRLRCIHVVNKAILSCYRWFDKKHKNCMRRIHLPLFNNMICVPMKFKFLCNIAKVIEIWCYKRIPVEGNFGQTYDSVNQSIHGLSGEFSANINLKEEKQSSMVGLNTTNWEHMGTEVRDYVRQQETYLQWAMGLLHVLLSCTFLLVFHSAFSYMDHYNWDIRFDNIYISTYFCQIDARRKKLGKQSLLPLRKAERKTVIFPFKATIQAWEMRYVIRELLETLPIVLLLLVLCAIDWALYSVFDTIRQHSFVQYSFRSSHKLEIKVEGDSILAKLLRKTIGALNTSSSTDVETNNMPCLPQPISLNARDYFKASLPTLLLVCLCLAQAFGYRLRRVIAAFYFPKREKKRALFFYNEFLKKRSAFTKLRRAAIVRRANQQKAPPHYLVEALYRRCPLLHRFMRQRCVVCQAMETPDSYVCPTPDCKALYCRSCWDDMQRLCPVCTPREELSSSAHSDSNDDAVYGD

B1: FLAG-tagged DCST1 (Dcst1-3xFLAG) (protein, UniProt Q059Y8 1-732)
chain: MAFLSSTLHSLGIFEKISRIKEVLKNRLLDLTKRRDQAREQQRKRPHTIIQGLLLWSLPVSWIRFLWRQPGEFPVTAFLLGAGTGGLLAIGLFQLLVNPMNIYEEQKVVALYCLASLGAIGWGTSPHIRCASLLLVPKMLGKEGRLFVMGYALAAIYSGPAANLRSNINEVIASLGCTVELQINNTRSAWRVSTAPLRAVFKGMVGSKDSLNKEIQNVSTSFEEMDEQVKSDAGYSSEDWDKNRESTEMFGTSRVRPYLSTQMVYELRTRLRCIHVVNKAILSCYRWFDKKHKNCMRRIHLPLFNNMICVPMKFKFLCNIAKVIEIWCYKRIPVEGNFGQTYDSVNQSIHGLSGEFSANINLKEEKQSSMVGLNTTNWEHMGTEVRDYVRQQETYLQWAMGLLHVLLSCTFLLVFHSAFSYMDHYNWDIRFDNIYISTYFCQIDARRKKLGKQSLLPLRKAERKTVIFPFKATIQAWEMRYVIRELLETLPIVLLLLVLCAIDWALYSVFDTIRQHSFVQYSFRSSHKLEIKVEGDSILAKLLRKTIGALNTSSSTDVETNNMPCLPQPISLNARDYFKASLPTLLLVCLCLAQAFGYRLRRVIAAFYFPKREKKRALFFYNEFLKKRSAFTKLRRAAIVRRANQQKAPPHYLVEALYRRCPLLHRFMRQRCVVCQAMETPDSYVCPTPDCKALYCRSCWDDMQRLCPVCTPREELSSSAHSDSNDDAVYGD
B2: IZUMO1 (protein, UniProt Q9D9J7 22-397)
chain: CIKCDQFVTDALKTFENTYLNDHLPHDIHKNVMRMVNHEVSSFGVVTSAEDSYLGAVDENTLEQATWSFLKDLKRITDSDLKGELFIKELLWMLRHQKDIFNNLARQFQKEVLCPNKCGVMSQTLIWCLKCEKQLHICRKSLDCGERHIEVHRSEDLVLDCLLSWHRASKGLTDYSFYRVWENSSETLIAKGKEPYLTKSMVGPEDAGNYRCVLDTINQGHATVIRYDVTVLPPKHSEENQPPNIITQEEHETPVHVTPQTPPGQEPESELYPELHPELYPELIPTVAQNPEKKMKTRLLILLTLGFVVLVASIIISVLHFRKVSAKLKNASDEVKPTASGSKSDQSLSQQMGLKKASQADFNSDYSGDKSEATEN

Assays:
[1] = biological target: HA-tagged DCST2 (Dcst2-3xHA, HEK293T) (mouse); assay: co-IP; lysate (200 μg, 1% Triton-X 100 lysis buffer) of HEK293T cells overexpressing Dcst1-3xFLAG and Dcst2-3xHA; anti-HA antibody coated Dynabeads Protein G, 1 h at 4 °C; wash 50 mM Tris-HCl (pH7.5), 150 mM NaCl, 0.1% Triton X-100, 10% glycerol; western blot for FLAG
[2] = biological target: HA-tagged DCST2 (Dcst2-3xHA transgene) (mouse); assay: co-IP; TGC (1 mg) and sperm (95~105 μg) protein extracts of Ctrl, Dcst1;Tg and Dcst2;Tg males in Pierce IP lysis buffer; anti-HA antibody coated Dynabeads Protein G, 1 h at 4 °C; wash 50 mM Tris-HCl (pH7.5), 150 mM NaCl, 0.1% Triton X-100, 10% glycerol; western blot for IZUMO1
[3] = biological target: T1, HA-tagged DCST1 (Dcst1-3xHA transgene) (mouse); assay: as above

Row | Binder | binding [1] | binding [2] | binding [3]
1 | B1 | binds |  | 
2 | B2 |  | no binding | no binding
